Among the data in PMC6858727 are binding values, retold here.

Protein sequences, listed by entry. Tags and fused reporters are not part of them.
UniProt Q93009: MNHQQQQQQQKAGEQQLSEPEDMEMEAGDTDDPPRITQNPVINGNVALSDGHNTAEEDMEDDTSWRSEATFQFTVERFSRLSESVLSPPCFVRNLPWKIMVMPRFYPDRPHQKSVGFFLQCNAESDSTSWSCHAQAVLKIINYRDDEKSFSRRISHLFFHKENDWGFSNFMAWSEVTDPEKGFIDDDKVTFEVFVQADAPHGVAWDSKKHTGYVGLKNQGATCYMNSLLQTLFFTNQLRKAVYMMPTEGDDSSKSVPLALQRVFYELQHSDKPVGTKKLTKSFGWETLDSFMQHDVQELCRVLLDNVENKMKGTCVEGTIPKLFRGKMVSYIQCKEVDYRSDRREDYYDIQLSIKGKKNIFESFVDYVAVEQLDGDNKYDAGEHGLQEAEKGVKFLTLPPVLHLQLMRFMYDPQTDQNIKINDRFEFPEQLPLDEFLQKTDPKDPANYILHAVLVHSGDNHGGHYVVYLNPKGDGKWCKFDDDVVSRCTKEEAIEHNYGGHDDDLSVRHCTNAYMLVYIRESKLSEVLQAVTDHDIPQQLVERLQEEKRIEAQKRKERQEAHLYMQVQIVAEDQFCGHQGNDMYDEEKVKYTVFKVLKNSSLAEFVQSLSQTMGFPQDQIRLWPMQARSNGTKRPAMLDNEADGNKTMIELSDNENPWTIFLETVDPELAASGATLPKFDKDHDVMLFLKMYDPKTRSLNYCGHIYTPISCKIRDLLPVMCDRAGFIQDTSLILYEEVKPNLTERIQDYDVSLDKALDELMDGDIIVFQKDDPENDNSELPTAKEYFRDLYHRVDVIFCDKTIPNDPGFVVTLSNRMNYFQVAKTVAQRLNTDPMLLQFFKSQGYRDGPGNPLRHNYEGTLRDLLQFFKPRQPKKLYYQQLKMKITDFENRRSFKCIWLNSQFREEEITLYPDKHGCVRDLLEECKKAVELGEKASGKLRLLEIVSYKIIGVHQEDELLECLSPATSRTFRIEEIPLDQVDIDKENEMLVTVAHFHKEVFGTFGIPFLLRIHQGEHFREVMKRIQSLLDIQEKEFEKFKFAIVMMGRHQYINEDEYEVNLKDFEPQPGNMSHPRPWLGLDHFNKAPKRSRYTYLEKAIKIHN

Results are given in words; binding and its absence hold for the method and conditions named. Binding seen in cells or lysates may run through a third protein. A yes stands for co-enrichment or nearness to the bait. Other partners may have been found.

The target of the experiment is Flag-tagged PLK1 (full length) (UniProt P53350). Description: affinity purification with mass spectrometry; tandem affinity purification with an anti-Flag antibody from HEK293T cells stably expressing Flag-tagged PLK1, then mass spectrometry.

On to “Ubiquitin specific protease 7 (USP7), endogenous in HEK293T cells (from UniProt Q93009 1-1102) (enzyme)”, for which the binding result is listed as “binds”.
